Results: paper PMC10352378
No constants are given. Whether binding was seen depends on the method and setting. In cells and extracts the contact can be indirect. A yes stands for co-enrichment or nearness to the bait. Other partners may have been found.

Chains of the proteins cited; added tags and fusions are not shown.
UniProt Q9Y490: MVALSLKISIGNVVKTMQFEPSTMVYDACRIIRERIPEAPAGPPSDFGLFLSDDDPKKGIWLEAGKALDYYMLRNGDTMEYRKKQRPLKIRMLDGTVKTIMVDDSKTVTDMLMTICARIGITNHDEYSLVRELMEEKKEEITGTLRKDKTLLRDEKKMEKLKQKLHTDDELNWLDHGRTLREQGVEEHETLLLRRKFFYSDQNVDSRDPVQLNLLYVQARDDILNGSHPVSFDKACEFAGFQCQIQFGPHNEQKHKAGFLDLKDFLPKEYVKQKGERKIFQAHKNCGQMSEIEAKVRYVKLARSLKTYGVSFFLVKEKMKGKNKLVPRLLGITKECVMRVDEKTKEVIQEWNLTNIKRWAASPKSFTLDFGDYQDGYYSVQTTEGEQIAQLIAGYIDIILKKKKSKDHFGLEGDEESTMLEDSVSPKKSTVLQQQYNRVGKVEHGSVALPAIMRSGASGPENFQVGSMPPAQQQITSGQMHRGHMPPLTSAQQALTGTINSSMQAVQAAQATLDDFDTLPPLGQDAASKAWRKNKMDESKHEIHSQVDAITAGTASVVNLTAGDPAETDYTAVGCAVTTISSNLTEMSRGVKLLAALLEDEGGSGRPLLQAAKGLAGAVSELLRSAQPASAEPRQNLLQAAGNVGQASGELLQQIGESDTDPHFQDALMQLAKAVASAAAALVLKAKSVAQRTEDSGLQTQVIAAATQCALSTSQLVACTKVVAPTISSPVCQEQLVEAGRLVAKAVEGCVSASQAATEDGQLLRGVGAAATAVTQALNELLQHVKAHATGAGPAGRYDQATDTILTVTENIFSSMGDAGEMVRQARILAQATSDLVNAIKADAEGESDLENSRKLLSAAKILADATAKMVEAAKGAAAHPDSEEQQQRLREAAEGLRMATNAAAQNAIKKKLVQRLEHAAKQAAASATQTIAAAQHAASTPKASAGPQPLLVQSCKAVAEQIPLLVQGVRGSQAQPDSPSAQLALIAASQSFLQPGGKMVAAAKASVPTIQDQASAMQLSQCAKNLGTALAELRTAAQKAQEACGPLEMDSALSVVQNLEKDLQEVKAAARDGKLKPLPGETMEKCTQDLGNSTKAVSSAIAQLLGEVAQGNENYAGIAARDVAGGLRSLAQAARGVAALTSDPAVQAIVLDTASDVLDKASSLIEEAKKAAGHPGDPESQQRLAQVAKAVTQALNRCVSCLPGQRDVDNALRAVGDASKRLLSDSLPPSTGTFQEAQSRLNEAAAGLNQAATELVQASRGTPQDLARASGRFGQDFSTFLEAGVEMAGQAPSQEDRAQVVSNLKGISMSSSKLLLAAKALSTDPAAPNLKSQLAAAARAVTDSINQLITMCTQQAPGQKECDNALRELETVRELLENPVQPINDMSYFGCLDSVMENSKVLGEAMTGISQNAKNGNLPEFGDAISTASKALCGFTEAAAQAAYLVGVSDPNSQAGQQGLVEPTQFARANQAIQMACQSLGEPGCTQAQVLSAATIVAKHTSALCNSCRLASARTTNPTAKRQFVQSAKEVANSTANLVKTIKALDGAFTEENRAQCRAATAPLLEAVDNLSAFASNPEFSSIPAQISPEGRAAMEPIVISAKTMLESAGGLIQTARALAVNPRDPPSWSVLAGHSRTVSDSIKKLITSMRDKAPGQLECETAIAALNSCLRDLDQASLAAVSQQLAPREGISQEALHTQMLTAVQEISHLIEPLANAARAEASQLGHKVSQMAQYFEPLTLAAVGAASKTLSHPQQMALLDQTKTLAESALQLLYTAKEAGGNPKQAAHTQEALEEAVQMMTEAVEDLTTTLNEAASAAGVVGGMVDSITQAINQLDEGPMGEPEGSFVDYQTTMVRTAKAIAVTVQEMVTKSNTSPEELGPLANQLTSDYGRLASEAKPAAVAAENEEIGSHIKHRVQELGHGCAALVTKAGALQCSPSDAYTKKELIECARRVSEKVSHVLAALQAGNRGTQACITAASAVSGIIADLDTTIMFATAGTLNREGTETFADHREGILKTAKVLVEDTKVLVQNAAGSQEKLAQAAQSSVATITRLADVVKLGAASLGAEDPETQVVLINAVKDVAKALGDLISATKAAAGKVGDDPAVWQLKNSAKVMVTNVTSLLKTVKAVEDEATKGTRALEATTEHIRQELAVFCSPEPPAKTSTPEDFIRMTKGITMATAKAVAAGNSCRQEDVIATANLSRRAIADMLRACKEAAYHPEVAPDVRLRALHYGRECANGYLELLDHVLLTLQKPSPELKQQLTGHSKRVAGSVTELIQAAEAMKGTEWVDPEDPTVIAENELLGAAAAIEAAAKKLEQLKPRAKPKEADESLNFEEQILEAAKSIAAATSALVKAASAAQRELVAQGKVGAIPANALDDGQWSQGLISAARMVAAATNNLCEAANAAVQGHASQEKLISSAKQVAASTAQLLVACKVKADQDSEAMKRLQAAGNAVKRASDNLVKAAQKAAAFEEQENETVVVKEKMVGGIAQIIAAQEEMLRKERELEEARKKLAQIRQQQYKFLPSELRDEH
UniProt P19474: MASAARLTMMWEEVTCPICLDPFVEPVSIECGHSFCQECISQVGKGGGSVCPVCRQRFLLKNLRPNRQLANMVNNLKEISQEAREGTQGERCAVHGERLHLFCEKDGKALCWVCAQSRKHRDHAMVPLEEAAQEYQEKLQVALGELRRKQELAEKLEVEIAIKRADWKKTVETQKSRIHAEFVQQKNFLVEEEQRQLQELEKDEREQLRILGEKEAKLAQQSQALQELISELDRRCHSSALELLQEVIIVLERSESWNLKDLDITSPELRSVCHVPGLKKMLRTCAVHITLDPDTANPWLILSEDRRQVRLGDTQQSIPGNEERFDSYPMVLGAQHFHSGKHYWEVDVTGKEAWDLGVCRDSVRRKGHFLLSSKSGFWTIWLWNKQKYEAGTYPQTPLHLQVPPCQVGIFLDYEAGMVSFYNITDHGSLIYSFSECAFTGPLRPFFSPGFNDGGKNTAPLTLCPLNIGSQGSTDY

Target: talin1 (cells and construct not stated) (UniProt Q9Y490)
Assay: affinity purification with mass spectrometry; talin1 immunoprecipitations analysed by timsTOF Pro mass spectrometry; cells not given

TRIM21 (found in talin1 immunoprecipitations by mass spectrometry) (from UniProt P19474 1-475) (enzyme)
binding: binds
